Measurements published in PMC8092839.
Results are given in words; binding and its absence hold for the method and conditions named. Some results given as binding are weak or reduced against the parent protein; the word gives no strength.

Molecular target: porcine Bax lacking the C-terminal transmembrane domain (BaxΔC) (porcine)
Test: two-hybrid

B1: porcine interferon regulatory factor 3 (IRF3) (protein, UniProt Q764M6 1-419)
chain: MGTQKPRILPWLISQLNQGQLEGVAWLDEGHTRFRIPWKHGLRQDAQQEDFGIFQAWAEASGAYTPGKDKPDLPTWKRNFRSALNRKEALRLAEDHSKDPHDPHKIYEFVTSGVGDFPEPDTSLDLSGRYSTSDTHEDSLDKLLSGMDLASDAGPQSLTLALEQPPQLSLSPSVDAPASCPNLGVRENPLKQLLANDDEWEFQVTVFYRGCQVFQQTVCSPGGLRLVGSEAEDGTLAGQPVRLPDPAASLTDRGVADYVRRVLSCLGGGLALWRAGQWLWAQRLGHCHVYWAMGEELIPDSGHKPDGEVPKDREGGVFDLGPFIEDLIAFIEGSRRSPRYTLWFCMGQSWPQDEPWVKRLVMVKVVPMCLRALVDMARDGGASSLENTVDLHISNSHPLSLTSDQYKACLRDLVEDMDF
- binding: binds
